Record: PubChem BioAssay AID743456 (Peter MacCallum Cancer Centre, 2014)

- Aim: 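Mimic library tested for viability and apoptosis changes under vorinostat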 (primary screen)
- System: human HCT116-VR colon cancer cells, a vorinostat-resistant HCT116 line
- Reagent: miRNA mimic
- Timing: about 3 days from transfection to readout; drug present for the last 24 h
- Treatment: vorinostat at 2.5 µM final for 24 h
- Measurement: 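Cell viability from CellTiter-Fluor signal and caspase activity from luminescence after 24 h vorinostat at 2.5 µM, given as robust z-scores and as ratios to mock-transfected wells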
- Reading the numbers: viability robust z-score and viability vs mock transfection: higher = more viable cells; caspase robust z-score: higher = more caspase activity, more apoptosis
- Active means: 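a mimic counts as active if it lands in a lowered-viability class or a caspase-activation class; wells with too few cells without drug are left out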
This is an unselected part of 878 deposited reagents. 27 of all reagents (3.1%) were called active. 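27 mimics are marked active, unlike an earlier stated count of 24; the viability threshold is described inconsistently.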 Entries without a mark were called inactive. Reagent sequences are not shown. Not given: the amount of reagent.

miRNA	viability robust z-score	caspase robust z-score	viability hit class	caspase hit class	viability vs mock transfection
hsa-miR-1469	0.1	-0.57	no change	no change	0.81
hsa-miR-215	-1.14	1.25	no change	no change	0.55
hsa-miR-148a*	0.06	1.58	no change	no change	0.8
hsa-let-7f-1*	-0.58	0.32	no change	no change	0.7
hsa-miR-620	-1.13	0.18	no change	no change	0.6
hsa-miR-623	0.62	-0.47	no change	no change	0.86
hsa-miR-518a-5p	0.01	1.57	no change	no change	0.79
hsa-miR-1184	0.62	-0.02	no change	no change	0.86
hsa-miR-589	0.78	-0.67	no change	no change	0.92
hsa-let-7g*	-1.53	1.48	no change	no change	0.53
hsa-miR-206	-0.72	1.47	no change	no change	0.68
hsa-miR-1269	-1.68 (active)	6.48	no change	caspase activation	0.45
hsa-miR-340	-0.24	-1.08	no change	no change	0.7
hsa-miR-1468	0.34	-0.82	no change	no change	0.84
hsa-miR-625	-2.47	1.38	no change	no change	0.38
hsa-miR-1298	-0.49	1.16	no change	no change	0.7
hsa-miR-1247	0.2	-0.76	no change	no change	0.82
hsa-miR-188-5p	1.08	-0.16	no change	no change	0.97
hsa-miR-219-1-3p	-1.38	1.92	no change	no change	0.5
hsa-miR-1291	0.94	1.16	no change	no change	0.92
hsa-miR-151-5p	-0.43	-0.62	no change	no change	0.72
hsa-miR-146a	-0.16	-0.98	no change	no change	0.76
hsa-miR-144*	-0.28	-0.56	no change	no change	0.75
hsa-miR-491-5p	-3.71 (active)	1.12	reduced viability	no change	0.08
hsa-miR-105	-1.02	-0.56	no change	no change	0.56
hsa-miR-10a*	-0.21	-0.56	no change	no change	0.76
hsa-miR-224	0.06	0.12	no change	no change	0.76
hsa-miR-302a	0.77	1.38	no change	no change	0.92
hsa-miR-25*	-2.03	-0.82	no change	no change	0.48
hsa-miR-183*	-0.5	0.5	no change	no change	0.72
hsa-miR-1912	-0.52	-0.35	no change	no change	0.72
hsa-miR-633	0.11	-0.73	no change	no change	0.81
hsa-miR-125a-3p	0.81	4.32	no change	no change	0.92
hsa-miR-497*	0.24	-0.55	no change	no change	0.79
hsa-miR-208a	0.38	1.68	no change	no change	0.82
hsa-miR-371-3p	-0.05	3.38	no change	no change	0.74
hsa-miR-148b*	-2.27	2.77	no change	no change	0.44
hsa-let-7c	-0.17	0.4	no change	no change	0.76
hsa-miR-17*	0.68	-0.52	no change	no change	0.9
hsa-miR-129-5p	-2.17	1	no change	no change	0.46
hsa-miR-1296	-1.2	1.6	no change	no change	0.6
hsa-miR-550*	-0.52	1.29	no change	no change	0.7
hsa-miR-34b*	-0.73	0.85	no change	no change	0.69
hsa-miR-423-3p	0.23	0.57	no change	no change	0.78
hsa-miR-2054	0.6	-0.6	no change	no change	0.89
hsa-let-7c*	0.58	-0.71	no change	no change	0.88
hsa-miR-23a	0.66	-0.81	no change	no change	0.9
hsa-miR-518b	-0.4	-0.4	no change	no change	0.68
hsa-miR-103	-0.03	-0.16	no change	no change	0.74
hsa-miR-93	0.52	-0.06	no change	no change	0.84
